Results as given in ChEMBL document CHEMBL5445981, “Affinity On-target Cellular Literature for EUbOPEN Chemogenomic Library” (2024).
pKi: −log10 of the molar value.

Sequences of proteins named here, by UniProt entry; tags and fusion partners are left off.
UniProt Q9Y463, whole entry: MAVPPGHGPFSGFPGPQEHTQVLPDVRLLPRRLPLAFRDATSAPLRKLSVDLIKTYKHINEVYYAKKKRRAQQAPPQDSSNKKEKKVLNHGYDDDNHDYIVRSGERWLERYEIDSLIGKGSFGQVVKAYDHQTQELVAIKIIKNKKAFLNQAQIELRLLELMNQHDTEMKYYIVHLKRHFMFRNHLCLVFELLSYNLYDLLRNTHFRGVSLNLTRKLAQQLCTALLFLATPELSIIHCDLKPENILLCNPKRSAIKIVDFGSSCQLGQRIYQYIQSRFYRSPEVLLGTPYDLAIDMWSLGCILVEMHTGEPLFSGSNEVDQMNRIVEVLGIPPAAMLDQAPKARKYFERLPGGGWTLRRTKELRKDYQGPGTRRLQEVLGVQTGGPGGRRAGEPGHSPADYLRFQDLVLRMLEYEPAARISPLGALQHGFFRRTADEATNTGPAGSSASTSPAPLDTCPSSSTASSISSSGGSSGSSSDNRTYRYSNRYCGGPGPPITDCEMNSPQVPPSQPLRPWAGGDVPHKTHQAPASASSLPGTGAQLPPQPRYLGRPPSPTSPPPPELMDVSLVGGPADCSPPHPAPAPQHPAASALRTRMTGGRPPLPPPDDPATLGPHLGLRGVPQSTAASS

Target: Dual specificity tyrosine-phosphorylation-regulated kinase 1B (Homo sapiens, UniProt Q9Y463)
Assay: Affinity On-target Cellular interaction: (NanoBRET assay (in HEK293T cells)) EUB0000008b DYRK1B
Format: cell-based, HEK-293T
Design: mode of action Inhibitor, recommended concentration 1 uM

SMILES: Cn1cc(-c2ccc3occ(-c4cccc(-c5ccncc5)c4)c3n2)cn1
- pKi: 5.00
